Measured values published in US20200165330A1 (ORDER MADE MEDICAL RESEARCH, published 2020).
These are yes or no findings as the source states them, for the method shown. Some entries that bind do so weakly or less than the wild type.

Columns and labels:
[1] = biological target: T1, Human recombinant VEGF165 (human, UniProt P15692 181-395); assay: ELISA on immobilized rhVEGF165
T1 construct: also called rhVEGF165; rhVEGF

[2] = biological target: T2, human VEGF121 (human, UniProt P15692 207-321); assay: ELISA on immobilized VEGF121, antibody serially diluted from 1 µg/ml
T2 sequence: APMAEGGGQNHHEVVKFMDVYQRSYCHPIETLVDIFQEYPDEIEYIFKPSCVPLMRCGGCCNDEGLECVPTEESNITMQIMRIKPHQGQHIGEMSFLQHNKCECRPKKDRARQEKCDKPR

[3] = biological target: T1, Human recombinant VEGF165; assay: ELISA on immobilized VEGF165, antibody serially diluted from 1 µg/ml
[4] = biological target: T2, human VEGF121; assay: ELISA, human VEGF121 coated at 20 ng/well, antibody serially diluted from 1 ug/ml, peroxidase anti-human Ig, absorbance 450 nm
Method: (§1) Next, after 3 times of washing with 300 μL of 0.02% Tween 20-containing PBS (−) (hereafter, denoted as “PBS-T”), 300 μL of 3% skim milk-containing PBS (−) was dispensed to each well, followed by blocking at 37° C. for 1 hour. […] After washing similarly, TMB Single Solution was added for color development at room temperature. After the reaction was stopped with 1 N sulfuric acid, absorbance at 450 nm was measured using a plate reader (Molecular Devices).

[5] = biological target: T1, Human recombinant VEGF165; assay: ELISA, human VEGF165 coated at 20 ng/well, antibody serially diluted from 1 ug/ml, peroxidase anti-human Ig, absorbance 450 nm
Method: as §1

[6] = biological target: T3, canine VEGFA (VEGF164) (canine, UniProt Q9MYV3-3 27-190); assay: ELISA on immobilized canine VEGFA, antibody serially diluted from 1 µg/ml
T3 construct: also called canine VEGF164
T3 sequence (looked up): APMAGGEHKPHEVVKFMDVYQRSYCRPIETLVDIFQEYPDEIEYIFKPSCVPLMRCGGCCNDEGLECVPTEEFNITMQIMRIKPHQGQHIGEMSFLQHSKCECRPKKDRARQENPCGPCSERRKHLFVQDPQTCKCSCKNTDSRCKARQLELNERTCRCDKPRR

[7] = biological target: T1, Human recombinant VEGF165; assay: ELISA on immobilized human VEGF165, antibody serially diluted from 1 µg/ml
[8] = biological target: T3, canine VEGFA (VEGF164); assay: ELISA, canine VEGFA coated at 20 ng/well, antibody serially diluted from 1 ug/ml, peroxidase anti-canine Ig, absorbance 450 nm
Method: (§2) Next, after 3 times of washing with 300 μL of 0.02% Tween 20-containing PBS (−) (hereafter, denoted as “PBS-T”), 300 μL of 3% skim milk-containing PBS (−) was dispensed into each well, followed by blocking at 37° C. for 1 hour. […] After washing similarly, TMB Single Solution was added for color development at room temperature. After the reaction was stopped with 1 N sulfuric acid, absorbance at 450 nm was measured using a plate reader (Molecular Devices).

[9] = biological target: T1, Human recombinant VEGF165; assay: ELISA, human VEGF165 coated at 20 ng/well, antibody serially diluted from 1 ug/ml, peroxidase anti-canine Ig, absorbance 450 nm
Method: as §2

Measured: binding

B1: human IgG1 chimeric KLHa505 antibody (antibody, V domains shown)
VH: QIQLVQSGPELKKPGETVKISCKASGYTFTNYGMNWVKQAPGKGLKWMGWINTYTGEPTYLDDFKGRFAFSLETSASTAYLQINNLKNEDTSTYFCARFSYGITWFFDVWGAGTTVTVSS
VL: DIVMSQSPSSLAVSAGEKVTMSCKSSQSLLNSRTRKNYLAWYQQKPGQSPKLLIYWASTRESGVPDRFTGSGSGTDFTLTISSVQAEDLAVYYCKQSYNLYTFGGGTKLEIKT
binds: [1] | [2] | [3] | [4] | [5]

B2: canine-IgGB chimeric KLHb1501 antibody (antibody, V domains shown)
VH: DVQLQESGPGLVKPSQSLSLTCTVTGYSITSDYAWTWIRQFPGDKLEWMGYISYSGSTRYNPSLKSRISITRDTSKNQFFLHLNSVTTEDTATYFCARGGDYYGSRPWFAYWGQGTLVTVSA
VL: QAVVTQESALTTSPGETVTLTCRSSTGAVTISNYANWVQEKPDHLFTGLIGGTNNRAPDVPARFSGSLIGDKAALTITGAQTEDEAIYFCALWYSNHLVFGEGTKLTVLQ
notes: also called KLHb1501CC; KLHb1501CC antibody
binds: [6] | [7] | [8] | [9]
